Assay results taken from PubChem BioAssay AID248 (DTP/NCI, 2004).
The list is a part of this screen's results and no random one: it gathers tests that were run many times, whatever their T/C, doses with no T/C, and many T/C values between a quarter and a half above the control. Other doses and runs of a compound stand elsewhere. T/C: endpoint of the treated group in % of that of the vehicle group. Some entries give survivors of the animals treated and no T/C: the source holds a T/C of zero for them, seemingly a mark for toxic or unscored doses. Some survivor counts are full or nearly so, which does not show that the dose was tolerated: the source hardly ever lists a survival T/C far under the control, and the zero likely stands for such cases as well. Counts of survivors are from the toxicity check (mostly the fifth day) where no day follows; animals may have died later. Schedules are NCI's codes, taken here to give the interval after Q, in days (D) or hours (H), and the number of doses after X. Some doses were run more than once; their values stand side by side, smallest first. For survival time, this PubChem deposit counts one and a half times the control or more as active, and values a quarter to a half above the control carry no call in these data; other NCI protocols may use other cut-offs.

Test system: L1210 leukemia ip in BDF1 mice, survival T/C
Test: NCI In Vivo Anticancer Drug Screen. Data for tumor model L1210 Leukemia (intraperitoneal) in B6D2F1 (BDF1) mice
Conditions: T/C endpoint: mean survival time, higher T/C = longer survival
[1] = dose: 400.0 mg/kg/injection, schedule: Q04DX003 (ip), vehicle: saline
[2] = dose: 100.0 mg/kg/injection, schedule: Q04DX003 (ip), vehicle: saline with Tween-80
[3] = dose: 200.0 mg/kg/injection, schedule: Q04DX003 (ip), vehicle: saline with Tween-80
[4] = dose: 400.0 mg/kg/injection, schedule: Q04DX003 (ip), vehicle: saline with Tween-80
[5] = dose: 400.0 mg/kg/injection, schedule: Q01DX009 (ip), vehicle: Klucel (hydroxypropylcellulose) (HPC)
[6] = dose: 400.0 mg/kg/injection, schedule: Q01DX001 (ip), vehicle: saline
[7] = dose: 200.0 mg/kg/injection, schedule: Q01DX001 (ip), vehicle: saline
[8] = dose: 400.0 mg/kg/injection, schedule: Q04DX003 (ip), vehicle: Klucel (hydroxypropylcellulose) (HPC)
[9] = dose: 100.0 mg/kg/injection, schedule: Q04DX003 (ip), vehicle: Klucel (hydroxypropylcellulose) (HPC)
[10] = dose: 200.0 mg/kg/injection, schedule: Q04DX003 (ip), vehicle: Klucel (hydroxypropylcellulose) (HPC)
[11] = dose: 100.0 mg/kg/injection, schedule: Q01DX009 (ip), vehicle: saline
[12] = dose: 200.0 mg/kg/injection, schedule: Q01DX009 (ip), vehicle: saline

`N#C[C@@H]1C2C=CC(CC2)[C@H]1C#N` was tested, and the survivor count (dose: 2.4 mg/kg/injection, schedule: Q03HX024 (ip), vehicle: gum acacia) was 8 of 10, the survivor count (dose: 3.6 mg/kg/injection, schedule: Q03HX024 (ip), vehicle: gum acacia) was 1 of 10 and the survivor count (dose: 5.4 mg/kg/injection, schedule: Q01DX009 (ip), vehicle: gum acacia) was 0 of 10. For the same molecule, the survivor count (dose: 5.4 mg/kg/injection, schedule: Q03HX024 (ip), vehicle: gum acacia) was 0 of 10, the survivor count (dose: 8.0 mg/kg/injection, schedule: Q01DX009 (ip), vehicle: gum acacia) was 0 of 10 and the survivor count (dose: 8.0 mg/kg/injection, schedule: Q03HX024 (ip), vehicle: gum acacia) was 0 of 10. For the same molecule, the survivor count (dose: 12.0 mg/kg/injection, schedule: Q01DX009 (ip), vehicle: gum acacia) was 0 of 10, the survivor count (dose: 12.0 mg/kg/injection, schedule: Q03HX024 (ip), vehicle: gum acacia) was 0 of 10 and the survivor count (dose: 16.0 mg/kg/injection, schedule: Q01DX001 (ip), vehicle: gum acacia) was 1 of 10. The survivor count (dose: 16.0 mg/kg/injection, schedule: Q04DX003 (ip), vehicle: gum acacia) was 0 of 10, the survivor count (dose: 24.0 mg/kg/injection, schedule: Q01DX001 (ip), vehicle: gum acacia) was 0 of 10 and the survivor count (dose: 24.0 mg/kg/injection, schedule: Q04DX003 (ip), vehicle: gum acacia) was 0 of 10. The survivor count (dose: 36.0 mg/kg/injection, schedule: Q01DX001 (ip), vehicle: gum acacia) was 0 of 10, the survivor count (dose: 36.0 mg/kg/injection, schedule: Q04DX003 (ip), vehicle: gum acacia) was 0 of 10 and the survivor count (dose: 54.0 mg/kg/injection, schedule: Q01DX001 (ip), vehicle: gum acacia) was 0 of 10. For the same molecule, the survivor count (dose: 54.0 mg/kg/injection, schedule: Q04DX003 (ip), vehicle: gum acacia) was 0 of 10, the survivor count (dose: 80.0 mg/kg/injection, schedule: Q01DX001 (ip), vehicle: gum acacia) was 0 of 10 and the survivor count (dose: 80.0 mg/kg/injection, schedule: Q04DX003 (ip), vehicle: gum acacia) was 0 of 10. The survivor count (dose: 120.0 mg/kg/injection, schedule: Q01DX001 (ip), vehicle: gum acacia) was 0 of 10 and the survivor count (dose: 120.0 mg/kg/injection, schedule: Q04DX003 (ip), vehicle: gum acacia) was 0 of 10.
`[Cl][Cu][Cl]` was tested, and the survivor count (dose: 25.0 mg/kg/injection, schedule: Q04DX003 (ip), vehicle: saline) was 0 of 6, the survivor count (dose: 100.0 mg/kg/injection, schedule: Q04DX003 (ip), vehicle: saline) was 0 of 6 and the survivor count (dose: 200.0 mg/kg/injection, schedule: Q04DX003 (ip), vehicle: saline) was 0 of 6. For the same molecule, the survivor count [1] was 0 of 6.
For `O=C(O)c1cc2ccccc2oc1=O`, the survivor count (dose: 20.0 mg/kg/injection, schedule: Q01DX009 (ip), vehicle: Klucel (hydroxypropylcellulose) (HPC)) was 1 of 3, the survivor count (dose: 40.0 mg/kg/injection, schedule: Q01DX009 (ip), vehicle: Klucel (hydroxypropylcellulose) (HPC)) was 0 of 3 and the survivor count [2] was 1 of 3. The survivor count [3] was 0 of 3 and the survivor count [4] was 0 of 3.
With `Oc1ccc2ccccc2c1-c1c(O)ccc2ccccc12` the survivor count [5] was 6 of 6.
`O=C(c1ccccc1)C1(c2ccccc2)CCP(c2ccccc2)(c2ccccc2)(c2ccccc2)O1` (centres undefined) was tested, and the survivor count (dose: 75.0 mg/kg/injection, schedule: Q01DX001 (ip), vehicle: carboxymethylcellulose (CMC)) was 3 of 6, the survivor count (dose: 150.0 mg/kg/injection, schedule: Q01DX001 (ip), vehicle: carboxymethylcellulose (CMC)) was 3 of 6 and the survivor count (dose: 300.0 mg/kg/injection, schedule: Q01DX001 (ip), vehicle: carboxymethylcellulose (CMC)) was 0 of 6.
`CCCCn1cnc2c(=O)n(C)c(=O)n(C)c21` was tested, and the survivor count [6] was 3 of 6.
In the case of `Nc1ccccn1`, the survivor count (dose: 50.0 mg/kg/injection, schedule: Q01DX001 (ip), vehicle: saline) is reported as 0 of 4, the survivor count (dose: 50.0 mg/kg/injection, schedule: Q04DX002 (ip), vehicle: saline) is reported as 0 of 3 and the survivor count (dose: 100.0 mg/kg/injection, schedule: Q01DX001 (ip), vehicle: saline) is reported as 0 of 4. The survivor count [7] was 0 of 4 and the survivor count [6] was 0 of 4.
For `Nc1ccc(CCCCc2c(N)nc(N)nc2N)cc1`, the survivor count [8] was 0 of 6.
In the case of `CC(=O)O[C@H]1CCCC[C@@H]1NC(=O)N(CCCl)N=O`, the survivor count (dose: 90.0 mg/kg/injection, schedule: Q01DX001 (ip), vehicle: carboxymethylcellulose (CMC)) is reported as 10 of 10 and the survivor count (dose: 135.0 mg/kg/injection, schedule: Q01DX001 (ip), vehicle: carboxymethylcellulose (CMC)) is reported as 9 of 10.
In the case of `Clc1ccc2c(Cl)cc(Cl)nc2c1`, the survivor count (dose: 150.0 mg/kg/injection, schedule: Q01DX001 (ip), vehicle: saline) is reported as 6 of 6.
`NC(=NCc1ccccc1)c1ccc(N=C(N)c2ccc(C(N)=Nc3ccc(C(N)=NCc4ccccc4)cc3)cc2)cc1` was tested, and the T/C (dose: 9.0 mg/kg/injection, schedule: Q01DX015 (ip), vehicle: water) was 134 % of control, the T/C (dose: 12.5 mg/kg/injection, schedule: Q01DX015 (ip), vehicle: water) was 145 % of control and the survivor count (dose: 31.0 mg/kg/injection, schedule: Q01DX001 (ip), vehicle: water) was 3 of 6. The survivor count (dose: 37.5 mg/kg/injection, schedule: Q01DX015 (ip), vehicle: water) was 0 of 6, the survivor count (dose: 50.0 mg/kg/injection, schedule: Q01DX009 (ip), vehicle: saline) was 0 of 6 and the survivor count (dose: 50.0 mg/kg/injection, schedule: Q01DX015 (ip), vehicle: water) was 0 of 6. For the same molecule, the survivor count (dose: 62.0 mg/kg/injection, schedule: Q01DX001 (ip), vehicle: water) was 0 of 6, the survivor count (dose: 100.0 mg/kg/injection, schedule: Q01DX015 (ip), vehicle: water) was 0 of 6 and the survivor count (dose: 125.0 mg/kg/injection, schedule: Q01DX001 (ip), vehicle: water) was 0 of 6. For the same molecule, the survivor count (dose: 250.0 mg/kg/injection, schedule: Q01DX001 (ip), vehicle: water) was 0 of 6.
For `N#C/C=C/C1CCCCC1`, the survivor count [7] was 2 of 6 and the survivor count [6] was 0 of 6.
For `O=C(O)COc1ccccc1OCC(=O)O`, the survivor count [5] was 6 of 6.
In the case of `COc1ccc(-c2cnc(=O)[nH]c2N)cc1`, the survivor count [8] is reported as 2 of 6.
In the case of `COc1ccc(Br)cc1`, the survivor count (dose: 400.0 mg/kg/injection, schedule: Q01DX009 (ip), vehicle: saline with Tween-80) is reported as 2 of 6.
For `Cc1c2cnccc2c(C)c2c1c1ccccc1n2CCNCCO`, the survivor count (dose: 400.0 mg/kg/injection, schedule: Q04DX003 (ip), vehicle: saline sonified) was 6 of 6.
For `CCOC(=O)c1c(-c2ccccc2)csc1N`, the survivor count [4] was 6 of 6.
`CCCCCCC(C)S(=O)(=O)c1ccc(C)cc1` (centres undefined) was tested, and the survivor count [6] was 4 of 4.
In the case of `Cn1ccc2c([N+](=O)[O-])cccc2c1=O`, the survivor count [9] is reported as 0 of 6 and 1 of 6, the survivor count [10] is reported as 0 of 6 and the survivor count [8] is reported as 0 of 6.
For `Fc1cc(F)c(CCl)c(F)c1`, the survivor count (dose: 400.0 mg/kg/injection, schedule: Q01DX009 (ip), vehicle: acetone) was 0 of 6.
For `CCCCN(CCCC)CCNc1ccc(Cl)c2oc3cc(C)ccc3c(=O)c12`, the survivor count [2] was 6 of 6, the survivor count [3] was 6 of 6 and the survivor count [4] was 5 of 6.
`CCOC(=O)c1nc(NC)sc1N` was tested, and the survivor count [11] was 3 of 6, the survivor count [12] was 4 of 6 and the survivor count [1] was 0 of 6.
In the case of `C=C(C)C(=O)Nc1ccccc1`, the survivor count [8] is reported as 3 of 3.
For `O=C(Nc1cc2ccccc2nc1-c1ccccc1)c1ccccc1`, the survivor count [7] was 3 of 6 and the survivor count [6] was 0 of 6.
`CC(C)=CCN(CC=C(C)C)CCC(C(N)=O)c1cccc2ccccc12` (centres undefined) was tested, and the survivor count [9] was 0 of 6, the survivor count [10] was 1 of 6 and the survivor count [8] was 0 of 6.
In the case of `Cc1ccc(S(=O)(=O)/N=C2\SCc3ccccc32)cc1`, the survivor count [11] is reported as 0 of 3 and the survivor count [12] is reported as 0 of 3.
